PubChem BioAssay AID1508597, Cure First – 2020
Shown is a random part of about 2,100 deposited reagents. 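Calls flag viability under 80% in either arm, not effects specific to rucaparib; the reference for percent is not stated.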 Not stated in the record: the 100% reference.

Assay: 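Genes whose silencing sensitises or protects ovarian cancer cells against rucaparib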 (primary screen)
Cells: human ovarian carcinoma lines grown from tumours: OCI-P5x (papillary serous) and OCI-C5x (clear cell)
Reagents: siRNA pool against human genes, 1.25 pmol siRNA per well
Duration: 72 h or 96 h, depending on the cell culture
Treatment: rucaparib 20 µM (about IC30) or vehicle, present until read-out
Measurement: 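Luminescent ATP-based viability assay read 72 or 96 h after transfection, depending on culture, given as normalised percent viability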
Reading the numbers: viability, normalised: higher = more viable cells remaining
Hit rule: 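a well counts as a hit if its normalised viability is under 80 percent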
Calls: active = viability under 80%; inactive = viability 80% or more

gene,PubChem SID,rucaparib or vehicle,cell line,technical replicate,"viability, normalised (%)",activity call
EPHB6 (EPH receptor B6),SID405527571,Rucaparib,OCI-C5x (clear cell),1,57.5,active
EPHB6 (EPH receptor B6),SID405527571,Rucaparib,OCI-C5x (clear cell),2,54.3,active
EPHB6 (EPH receptor B6),SID405527571,Rucaparib,OCI-C5x (clear cell),3,62.8,active
EPHB6 (EPH receptor B6),SID405527571,Rucaparib,OCI-P5x (serous),1,101,inactive
EPHB6 (EPH receptor B6),SID405527571,Rucaparib,OCI-P5x (serous),2,81.7,inactive
EPHB6 (EPH receptor B6),SID405527571,Rucaparib,OCI-P5x (serous),3,96.5,inactive
EPHB6 (EPH receptor B6),SID405527571,Vehicle,OCI-C5x (clear cell),1,64,active
EPHB6 (EPH receptor B6),SID405527571,Vehicle,OCI-C5x (clear cell),2,81.1,inactive
EPHB6 (EPH receptor B6),SID405527571,Vehicle,OCI-C5x (clear cell),3,51.3,active
EPHB6 (EPH receptor B6),SID405527571,Vehicle,OCI-P5x (serous),1,106,inactive
EPHB6 (EPH receptor B6),SID405527571,Vehicle,OCI-P5x (serous),2,96.6,inactive
EPHB6 (EPH receptor B6),SID405527571,Vehicle,OCI-P5x (serous),3,83.8,inactive
PAN3 (poly(A) specific ribonuclease subunit PAN3),SID405527905,Rucaparib,OCI-C5x (clear cell),1,74.7,active
PAN3 (poly(A) specific ribonuclease subunit PAN3),SID405527905,Rucaparib,OCI-C5x (clear cell),2,57.5,active
PAN3 (poly(A) specific ribonuclease subunit PAN3),SID405527905,Rucaparib,OCI-C5x (clear cell),3,70.1,active
PAN3 (poly(A) specific ribonuclease subunit PAN3),SID405527905,Rucaparib,OCI-P5x (serous),1,93.7,inactive
PAN3 (poly(A) specific ribonuclease subunit PAN3),SID405527905,Rucaparib,OCI-P5x (serous),2,93.9,inactive
PAN3 (poly(A) specific ribonuclease subunit PAN3),SID405527905,Rucaparib,OCI-P5x (serous),3,70,active
PAN3 (poly(A) specific ribonuclease subunit PAN3),SID405527905,Vehicle,OCI-C5x (clear cell),1,95.7,inactive
PAN3 (poly(A) specific ribonuclease subunit PAN3),SID405527905,Vehicle,OCI-C5x (clear cell),2,58.3,active
PAN3 (poly(A) specific ribonuclease subunit PAN3),SID405527905,Vehicle,OCI-C5x (clear cell),3,48,active
PAN3 (poly(A) specific ribonuclease subunit PAN3),SID405527905,Vehicle,OCI-P5x (serous),1,86.4,inactive
PAN3 (poly(A) specific ribonuclease subunit PAN3),SID405527905,Vehicle,OCI-P5x (serous),2,77.1,active
PAN3 (poly(A) specific ribonuclease subunit PAN3),SID405527905,Vehicle,OCI-P5x (serous),3,88.2,inactive
ITIH4 (inter-alpha-trypsin inhibitor heavy chain 4),SID405526911,Rucaparib,OCI-C5x (clear cell),1,45.7,active
ITIH4 (inter-alpha-trypsin inhibitor heavy chain 4),SID405526911,Rucaparib,OCI-C5x (clear cell),2,47.3,active
ITIH4 (inter-alpha-trypsin inhibitor heavy chain 4),SID405526911,Rucaparib,OCI-C5x (clear cell),3,37.5,active
ITIH4 (inter-alpha-trypsin inhibitor heavy chain 4),SID405526911,Rucaparib,OCI-P5x (serous),1,83.3,inactive
ITIH4 (inter-alpha-trypsin inhibitor heavy chain 4),SID405526911,Rucaparib,OCI-P5x (serous),2,80.2,inactive
ITIH4 (inter-alpha-trypsin inhibitor heavy chain 4),SID405526911,Rucaparib,OCI-P5x (serous),3,77.5,active
ITIH4 (inter-alpha-trypsin inhibitor heavy chain 4),SID405526911,Vehicle,OCI-C5x (clear cell),1,48.7,active
ITIH4 (inter-alpha-trypsin inhibitor heavy chain 4),SID405526911,Vehicle,OCI-C5x (clear cell),2,38.6,active
ITIH4 (inter-alpha-trypsin inhibitor heavy chain 4),SID405526911,Vehicle,OCI-C5x (clear cell),3,51.8,active
ITIH4 (inter-alpha-trypsin inhibitor heavy chain 4),SID405526911,Vehicle,OCI-P5x (serous),1,83.3,inactive
ITIH4 (inter-alpha-trypsin inhibitor heavy chain 4),SID405526911,Vehicle,OCI-P5x (serous),2,86.3,inactive
ITIH4 (inter-alpha-trypsin inhibitor heavy chain 4),SID405526911,Vehicle,OCI-P5x (serous),3,93.6,inactive
PRMT8 (protein arginine methyltransferase 8),SID405527206,Rucaparib,OCI-C5x (clear cell),1,48.8,active
PRMT8 (protein arginine methyltransferase 8),SID405527206,Rucaparib,OCI-C5x (clear cell),2,40.4,active
PRMT8 (protein arginine methyltransferase 8),SID405527206,Rucaparib,OCI-C5x (clear cell),3,41.1,active
PRMT8 (protein arginine methyltransferase 8),SID405527206,Rucaparib,OCI-P5x (serous),1,45.1,active
PRMT8 (protein arginine methyltransferase 8),SID405527206,Rucaparib,OCI-P5x (serous),2,50.7,active
PRMT8 (protein arginine methyltransferase 8),SID405527206,Rucaparib,OCI-P5x (serous),3,53.6,active
PRMT8 (protein arginine methyltransferase 8),SID405527206,Vehicle,OCI-C5x (clear cell),1,33.7,active
PRMT8 (protein arginine methyltransferase 8),SID405527206,Vehicle,OCI-C5x (clear cell),2,39.8,active
PRMT8 (protein arginine methyltransferase 8),SID405527206,Vehicle,OCI-C5x (clear cell),3,45,active
PRMT8 (protein arginine methyltransferase 8),SID405527206,Vehicle,OCI-P5x (serous),1,43.8,active
PRMT8 (protein arginine methyltransferase 8),SID405527206,Vehicle,OCI-P5x (serous),2,28.3,active
PRMT8 (protein arginine methyltransferase 8),SID405527206,Vehicle,OCI-P5x (serous),3,81.7,inactive
NPM2 (nucleophosmin/nucleoplasmin 2),SID405527087,Rucaparib,OCI-C5x (clear cell),1,62.9,active
NPM2 (nucleophosmin/nucleoplasmin 2),SID405527087,Rucaparib,OCI-C5x (clear cell),2,61.1,active
NPM2 (nucleophosmin/nucleoplasmin 2),SID405527087,Rucaparib,OCI-C5x (clear cell),3,44.4,active
NPM2 (nucleophosmin/nucleoplasmin 2),SID405527087,Rucaparib,OCI-P5x (serous),1,51.6,active
NPM2 (nucleophosmin/nucleoplasmin 2),SID405527087,Rucaparib,OCI-P5x (serous),2,62,active
NPM2 (nucleophosmin/nucleoplasmin 2),SID405527087,Rucaparib,OCI-P5x (serous),3,70.8,active
NPM2 (nucleophosmin/nucleoplasmin 2),SID405527087,Vehicle,OCI-C5x (clear cell),1,66.8,active
NPM2 (nucleophosmin/nucleoplasmin 2),SID405527087,Vehicle,OCI-C5x (clear cell),2,61.4,active
NPM2 (nucleophosmin/nucleoplasmin 2),SID405527087,Vehicle,OCI-C5x (clear cell),3,61.7,active
NPM2 (nucleophosmin/nucleoplasmin 2),SID405527087,Vehicle,OCI-P5x (serous),1,60.7,active
NPM2 (nucleophosmin/nucleoplasmin 2),SID405527087,Vehicle,OCI-P5x (serous),2,71.1,active
NPM2 (nucleophosmin/nucleoplasmin 2),SID405527087,Vehicle,OCI-P5x (serous),3,84.3,inactive
PHF21B (PHD finger protein 21B),SID405527152,Rucaparib,OCI-C5x (clear cell),1,53.1,active
PHF21B (PHD finger protein 21B),SID405527152,Rucaparib,OCI-C5x (clear cell),2,49.9,active
PHF21B (PHD finger protein 21B),SID405527152,Rucaparib,OCI-C5x (clear cell),3,39.9,active
PHF21B (PHD finger protein 21B),SID405527152,Rucaparib,OCI-P5x (serous),1,52.5,active
PHF21B (PHD finger protein 21B),SID405527152,Rucaparib,OCI-P5x (serous),2,51.1,active
PHF21B (PHD finger protein 21B),SID405527152,Rucaparib,OCI-P5x (serous),3,56.9,active
PHF21B (PHD finger protein 21B),SID405527152,Vehicle,OCI-C5x (clear cell),1,37.7,active
PHF21B (PHD finger protein 21B),SID405527152,Vehicle,OCI-C5x (clear cell),2,43.6,active
PHF21B (PHD finger protein 21B),SID405527152,Vehicle,OCI-C5x (clear cell),3,56.8,active
PHF21B (PHD finger protein 21B),SID405527152,Vehicle,OCI-P5x (serous),1,65.3,active
PHF21B (PHD finger protein 21B),SID405527152,Vehicle,OCI-P5x (serous),2,68,active
PHF21B (PHD finger protein 21B),SID405527152,Vehicle,OCI-P5x (serous),3,89.6,inactive
PNKP (polynucleotide kinase 3'-phosphatase),SID405528330,Rucaparib,OCI-C5x (clear cell),1,34.6,active
PNKP (polynucleotide kinase 3'-phosphatase),SID405528330,Rucaparib,OCI-C5x (clear cell),2,36.6,active
PNKP (polynucleotide kinase 3'-phosphatase),SID405528330,Rucaparib,OCI-C5x (clear cell),3,35.7,active
PNKP (polynucleotide kinase 3'-phosphatase),SID405528330,Rucaparib,OCI-P5x (serous),1,75.7,active
PNKP (polynucleotide kinase 3'-phosphatase),SID405528330,Rucaparib,OCI-P5x (serous),2,80.7,inactive
PNKP (polynucleotide kinase 3'-phosphatase),SID405528330,Rucaparib,OCI-P5x (serous),3,66.4,active
PNKP (polynucleotide kinase 3'-phosphatase),SID405528330,Vehicle,OCI-C5x (clear cell),1,53.2,active
PNKP (polynucleotide kinase 3'-phosphatase),SID405528330,Vehicle,OCI-C5x (clear cell),2,45.1,active
PNKP (polynucleotide kinase 3'-phosphatase),SID405528330,Vehicle,OCI-C5x (clear cell),3,47.6,active
PNKP (polynucleotide kinase 3'-phosphatase),SID405528330,Vehicle,OCI-P5x (serous),1,81,inactive
PNKP (polynucleotide kinase 3'-phosphatase),SID405528330,Vehicle,OCI-P5x (serous),2,94.6,inactive
PNKP (polynucleotide kinase 3'-phosphatase),SID405528330,Vehicle,OCI-P5x (serous),3,80,inactive

5 entries from above, reformatted.
PNKP (polynucleotide kinase 3'-phosphatase) [SID405528330], rucaparib or vehicle Rucaparib, cell line OCI-C5x (clear cell), technical replicate 3 → viability, normalised (%) = 35.7; activity call = active
PNKP (polynucleotide kinase 3'-phosphatase) [SID405528330], rucaparib or vehicle Rucaparib, cell line OCI-P5x (serous), technical replicate 1 → viability, normalised (%) = 75.7; activity call = active
PNKP (polynucleotide kinase 3'-phosphatase) [SID405528330], rucaparib or vehicle Rucaparib, cell line OCI-P5x (serous), technical replicate 2 → viability, normalised (%) = 80.7; activity call = inactive
PNKP (polynucleotide kinase 3'-phosphatase) [SID405528330], rucaparib or vehicle Rucaparib, cell line OCI-P5x (serous), technical replicate 3 → viability, normalised (%) = 66.4; activity call = active
PNKP (polynucleotide kinase 3'-phosphatase) [SID405528330], rucaparib or vehicle Vehicle, cell line OCI-C5x (clear cell), technical replicate 1 → viability, normalised (%) = 53.2; activity call = active
